The values that follow come from patent publication US11426444B2, “Compositions, methods and uses for treating post-traumatic stress disorder” (priority 2017, dated 2022).

The subject of this data set is C57Bl/6J mice. Kind of data set: Open field motor activity (OF) after CSD (Example 4). It is filed as in vivo, mouse. The note with it: 15 min open field. The protocol: The mouse chronic social defeat (“CSD”) model has been accepted as a model of PTSD [Flandreau, et al, 2018]. This model involves exposure of C57Bl/6J mice to chronic stress by aggressor mice (male CD-1 ex-breeders) for a defined period of 15 days. Starting from day 15, mice were further tested in the open field (OF) model.
Behavioral tests such as Open field motor activity (OF) were also conducted. See the schematic of FIG. 7.
In this model set up the test was conducted 15 days after the last CSD session. The mouse was placed on the Open Field apparatus floor in the center of empty arena for 15 min without exposure to any other stimuli. The following parameters were calculated from the data: distance moved, number of vertical rearing's, velocity and % resting time (no movement activity). Open field activity chambers (Med Associates Inc, St Albans, Vt.; 27×27×20.3 cm) are equipped with IR beams with red light conditions. A mouse is considered to have no movement activity when the mouse is not breaking two adjacent beams consecutively (distance between two adjacent beams is about 1.7 cm).

For “Teneurin C-Terminal Associated Peptide-1 (QQLLGTGRVQGYDGYFVLSVEQYLELSDSANNIHFMRQSEI; C-terminal amide; Mouse TCAP1 (41 a.a.)) [TCAP-1]”, the “distance moved (locomotor activity, LMA)” value is given as “all groups moved similar distances”. Moreover, the “velocity (locomotor activity)” value (FIG. 11) is “do not have impaired locomotor activity”.
